# Results: the supplement of paper PMC7411640
# Where a name gives a salt, the structure may show the parent alone. The list shows a part of the results. Most values lie within the scatter of the assay; repeated measurements hardly agree.
# Tested on: MDA-MB-468
# Experiment: phospho-S6 immunofluorescence (DAPI-normalised), per-plate z-score; higher = higher phospho-S6 signal (less pathway suppression)
# Settings: 24 h
# Protocol: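 GPCR-targeted compound library (MedChemExpress HY-L006) tested on MDA-MB-468 PTEN-null TNBC cells in 384-well plates at 0.1, 1 or 10 uM, combined with vehicle, GDC0941 450 nM or lapatinib 1 uM, for 24 h. Phospho-S6 (S240/244) immunofluorescence normalised to DAPI and expressed as a per-plate z-score; values are the mean of biological triplicates.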
# [1] = compound 0.1 µM, co-treatment: GDC0941 450 nM
# [2] = compound 0.1 µM, co-treatment: lapatinib 1 uM
# [3] = compound 0.1 µM, co-treatment: vehicle
# [4] = compound 1 µM, co-treatment: GDC0941 450 nM
# [5] = compound 1 µM, co-treatment: lapatinib 1 uM
# [6] = compound 1 µM, co-treatment: vehicle
# [7] = compound 10 µM, co-treatment: GDC0941 450 nM
# [8] = compound 10 µM, co-treatment: lapatinib 1 uM
# [9] = compound 10 µM, co-treatment: vehicle
Compound,phospho-S6 immunofluorescence (z-score) [1],phospho-S6 immunofluorescence (z-score) [2],phospho-S6 immunofluorescence (z-score) [3],phospho-S6 immunofluorescence (z-score) [4],phospho-S6 immunofluorescence (z-score) [5],phospho-S6 immunofluorescence (z-score) [6],phospho-S6 immunofluorescence (z-score) [7],phospho-S6 immunofluorescence (z-score) [8],phospho-S6 immunofluorescence (z-score) [9]
Cc1ccc(F)cc1C(=O)Nc1ccc(C(=O)N2Cc3cccn3Cc3ccccc32)c(Cl)c1 [Lixivaptan],-0.16,0.6,-0.06,-1.4,0,-0.41,-2.79,-0.79,0.62
CCN1CCC[C@H]1CNC(=O)c1cc(S(N)(=O)=O)ccc1OC [Levosulpiride],-0.31,-0.32,0.05,1.42,0.42,0.31,0.22,0.89,-0.63
CC(C)NCC(O)COc1cccc2ccccc12 (stereo not given) [Propranolol (hydrochloride)],-1.17,-0.78,-0.6,-1.42,1.12,0.09,0.53,0.73,0.21
COc1cc(C(=O)N(CCCc2ccccc2)Cc2ccc(CC(=O)O)cc2)cc(OC)c1C,-1.21,-0.81,-1.2,-1,-0.16,-1.08,-0.21,0.49,-0.17
Cc1nc(C(=O)N2CCC[C@H]2Cc2nnc(-c3ccccc3)o2)c(-c2ccccc2F)s1,-0.15,-0.35,1.98,0.45,-0.34,-1.49,0.95,0.29,0.17
O=C(CCCN1CC=C(n2c(=O)[nH]c3ccccc32)CC1)c1ccc(F)cc1 [Droperidol],-0.51,1.2,0.83,-0.68,-0.03,0.89,-0.18,0.16,0.18
CN(C)C(=O)CCSC(SCCC(=O)O)c1cccc(/C=C/c2ccc3ccc(Cl)cc3n2)c1 (stereo not given) [MK-571 (sodium salt)],1.18,0.52,1.27,0.8,0.35,1.36,-0.65,0.9,1.28
C[C@H](NC(=O)CNC(=O)c1cccc(Cl)c1)c1ccccc1,-0.39,-0.36,-0.04,-0.63,-0.16,0,0.04,0.45,0.46
CCCCC(=O)N(Cc1ccc(-c2ccccc2-c2nnn[nH]2)cc1)[C@H](C(=O)O)C(C)C [Valsartan],0.8,0.9,0.9,0.58,0.18,1.1,0.04,0.5,0.13
CC(C)NCC(O)c1ccc(NS(C)(=O)=O)cc1 (stereo not given) [Sotalol (hydrochloride)],0.82,0.77,1.24,1.23,0.26,-0.11,1.31,1.24,0.37
CC(=O)Oc1cc2c(s1)CCN(C(C(=O)C1CC1)c1ccccc1F)C2 (stereo not given) [Prasugrel],-1.41,-0.39,-1.13,-1.74,0.94,-0.88,-1.29,1.92,-0.48
CC1(C)O[C@@H]2[C@@H](CO[C@@]3(COS(N)(=O)=O)OC(C)(C)O[C@@H]23)O1 [Topiramate],0.47,-1.35,0.15,-0.69,-0.4,-0.41,-0.24,0.19,-0.31
CN(C)[C@@H]1CCc2[nH]c3ccc(NC(=O)c4ccc(F)cc4)cc3c2C1,-0.18,-0.01,-0.67,-0.03,-0.07,-1.15,0.67,-1.38,-0.54
Cc1c(C(=O)NN2CCCCC2)nn(-c2ccc(Cl)cc2Cl)c1-c1ccc(I)cc1,0.26,-0.61,-0.13,-1.15,-0.27,-0.48,-1.91,-1.68,-2.82
CC(CN1c2ccccc2Sc2ccccc21)N(C)C (stereo not given) [Promethazine (hydrochloride)],-0.01,-0.5,0.11,-1.17,-1.41,-0.92,-1.86,-2.76,-0.84
OC(CCN1CCCCC1)(c1ccccc1)C1CC2C=CC1C2 (stereo not given) [Biperiden (Hydrochloride)],-0.99,-0.95,-1.42,-1.1,-1.09,-3.46,-1.68,-0.97,-1.56
O=C1CC2(CCCC2)CC(=O)N1CCCCN1CCN(c2ncccn2)CC1 [Buspirone (hydrochloride)],1.07,0.88,1.73,0.53,1.81,2.14,0.3,0.17,0.69
COc1ccccc1N1CCN(CCN(C(=O)C2CCCCC2)c2ccccn2)CC1,-0.61,-1.61,-0.41,-0.45,1.19,-1.94,-0.49,0.26,-0.79
CC[C@H](C)[C@H](NC(=O)[C@H](Cc1ccc(O)cc1)NC(=O)[C@@H]1CCCN1C(=O)[C@@H](NC(=O)[C@@H](N)CCCCN)[C@@H](C)CC)C(=O)N[C@@H](CC(C)C)C(=O)O [Neuromedin N],-0.33,-0.72,-0.44,-1.04,-0.32,-1.13,0.27,-0.01,-0.38
c1ccc(CN(CC2=NCCN2)c2ccccc2)cc1 [Antazoline (hydrochloride)],0.54,-0.07,0.79,0.15,0.63,0.68,0.27,0.23,1.23

# Compounds above containing an aryl methoxy group, in the order listed:
Compound,phospho-S6 immunofluorescence (z-score) [1],phospho-S6 immunofluorescence (z-score) [2],phospho-S6 immunofluorescence (z-score) [3],phospho-S6 immunofluorescence (z-score) [4],phospho-S6 immunofluorescence (z-score) [5],phospho-S6 immunofluorescence (z-score) [6],phospho-S6 immunofluorescence (z-score) [7],phospho-S6 immunofluorescence (z-score) [8],phospho-S6 immunofluorescence (z-score) [9]
CCN1CCC[C@H]1CNC(=O)c1cc(S(N)(=O)=O)ccc1OC [Levosulpiride],-0.31,-0.32,0.05,1.42,0.42,0.31,0.22,0.89,-0.63
COc1cc(C(=O)N(CCCc2ccccc2)Cc2ccc(CC(=O)O)cc2)cc(OC)c1C,-1.21,-0.81,-1.2,-1,-0.16,-1.08,-0.21,0.49,-0.17
COc1ccccc1N1CCN(CCN(C(=O)C2CCCCC2)c2ccccn2)CC1,-0.61,-1.61,-0.41,-0.45,1.19,-1.94,-0.49,0.26,-0.79
